Reference: the supplement of paper PMC12889115
The list shows a part of the results. These are raw signals, not scaled to a control.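 First-pass screen: polymyxin B was added at a level that permeabilizes the Salmonella outer membrane while sparing the inner membrane. DMSO wells, with and without polymyxin B, defined maximum growth. Because plates differed from one another, each plate's data were ranked separately and the compounds with the lowest OD600 were carried forward as hits.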

System: Salmonella enterica serovar Typhimurium SL1344
Assay: bacterial growth OD600 after 18 h with compound and polymyxin B; higher = more bacterial growth (less inhibition)
Conditions: 50 µM, Mueller-Hinton broth

| Compound | bacterial growth OD600 (polymyxin B 1 µg/mL) | bacterial growth OD600 (polymyxin B 0.75 µg/mL) |
| --- | --- | --- |
| CCc1ccc(CN2CC[C@@H](N3CCN(c4ccccc4F)CC3)[C@H](O)C2)o1 | 0.887 |  |
| O=C1O[C@@H]2CN(c3cnccn3)C[C@@H]2N1C1CCCC1 |  | 0.874 |
| Cc1ncc(CN2CCCC(C(=O)Nc3ccc(-c4cscn4)cc3)C2)n1C (stereo unspecified) |  | 0.815 |
| COCc1ccc(C(=O)Nc2ccc(-c3nc(CNC(=O)c4cnsn4)c(C)o3)cc2)o1 |  | 0.858 |
| CN1N=C(C(=O)N2CCCC(CCc3cccc(F)c3)C2)CCC1=O (stereo unspecified) |  | 0.767 |
| CCOC(=O)C1(Cc2ccccc2C)CCCN(S(=O)(=O)c2c(C)nn(C)c2C)C1 (stereo unspecified) | 0.737 |  |
| O=C(c1ccc(N2CCOCC2)nc1)N1CCC(CCn2cccn2)CC1 |  | 0.774 |
| CCN(CC)C(=O)C1CCCN(C(=O)CC2(c3cccc(F)c3)CC(=O)N(C3CCCC3)C2=O)C1 (stereo unspecified) |  | 0.729 |
| CCCS(=O)(=O)NC1CC(=O)N(CCc2ccccc2)C1 (stereo unspecified) | 0.889 |  |
| CCOC(=O)N1CCC(N2CC[C@@H](N(C)CCc3ccccn3)[C@H](O)C2)CC1 |  | 0.886 |
| CN(C)C(=O)C1CCCN(C2CCN(C3Cc4ccccc4C3)CC2)C1 (stereo unspecified) |  | 0.913 |
| CN(Cc1nccn1C)C(=O)c1csc2nc(-c3ccc(C(F)(F)F)cc3)cn12 | 0.81 |  |
| COc1ccc(CNC(=O)CCC2CCCN(Cc3ccc(C)s3)C2)c(OC)c1 (stereo unspecified) |  | 0.814 |
| CN(Cc1ccon1)c1ccc(-c2nc(Cc3ccc(F)cc3)no2)cn1 |  | 0.001 |
| O=C(c1ccc(N2CCC(NCCC(c3ccccc3)c3ccco3)CC2)cc1)N1CCOCC1 (stereo unspecified) |  | 0.905 |
| COCCN1C(=O)NC(Cc2ccc(F)cc2)(C2CCN(C(=O)C3Cc4ccccc4O3)CC2)C1=O (stereo unspecified) |  | 0.754 |

| Compound | bacterial growth OD600 (polymyxin B 1 µg/mL) | bacterial growth OD600 (polymyxin B 0.75 µg/mL) |
| --- | --- | --- |
| Cc1ccc2c(C)c(C(=O)N(Cc3ccccn3)C[C@@H]3CCC(=O)N3)oc2c1C |  | 0.735 |
| O=C(c1cccc2ccccc12)C1CCCN(C(=O)c2ccc3c(c2)OCO3)C1 (stereo unspecified) | 0.005 |  |
| C=C(C)CN(C)c1ccc(C(=O)N2CCCCC2CCn2cccn2)cn1 (stereo unspecified) | 0.625 |  |
| COc1ccc(C(CC(=O)N(C)Cc2cc(C)no2)c2ccccc2)cc1 (stereo unspecified) | 0.72 |  |
| Cc1n[nH]cc1C(=O)NC1CC(C)(C)Cc2nc(C(C)(C)C)ncc21 (stereo unspecified) | 0.923 |  |
| CN1CCC(CN(CCc2ccccc2)Cc2ccccc2F)CC1 | 0.747 |  |
| O[C@@H]1CN(C/C=C/c2ccco2)CC[C@H]1N1CCN(c2ccccn2)CC1 | 0.892 |  |
| O=C(CCC(=O)c1ccccc1)Nc1cnn(CC(=O)N2CCC(OCc3ccccc3)CC2)c1 |  | 0.749 |
| COc1ccc(C(=O)N2CCCC2)c(OC2CCN(CC(C)c3ccccc3)CC2)c1 (stereo unspecified) | 0.907 |  |
| O=C(N[C@H]1CCCCNC1=O)c1coc(COc2cccc(C(F)(F)F)c2)n1 | 0.916 |  |
| CCCC(=O)NC1CC(C)(C)Cc2nc(N3CCOCC3)ncc21 (stereo unspecified) | 0.881 |  |
| CC(NC(=O)c1cc(Cl)ccc1OC1CCN(C2CCCC2)CC1)c1ccncn1 (stereo unspecified) | 1.02 |  |
| O=C(NCc1cccnc1)c1cc(Cn2cnc3ccccc32)on1 | 1.24 |  |
| O=C(NCc1cccnc1)c1ccc(N2CCC(NCc3csc(Cc4ccccc4)n3)CC2)cc1 |  | 0.736 |
| CC(Cn1cncn1)NC(=O)c1cc(COc2ccc3c(c2)CCCC3)on1 (stereo unspecified) | 0.987 |  |

Some values from above.
Under bacterial growth OD600 (polymyxin B 1 µg/mL), `Cc1n[nH]cc1C(=O)NC1CC(C)(C)Cc2nc(C(C)(C)C)ncc21` (stereo unspecified) is entered as 0.923
Under bacterial growth OD600 (polymyxin B 1 µg/mL), `C=C(C)CN(C)c1ccc(C(=O)N2CCCCC2CCn2cccn2)cn1` (stereo unspecified) is entered as 0.625
